Data as given in PubChem BioAssay AID504793 (Drosophila RNAi Screening Center, 2011).
Test: 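Genes required for cells to halt at G2/M after double-strand DNA breaks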 (primary screen). Cell system: Drosophila S2R+ cells. Knock-down reagent: long dsRNA against Drosophila genes, about 0.25 µg dsRNA per well. Duration: 4 days of dsRNA, then 4 hours of drug before read-out. Conditions: doxorubicin 0.5 µM for 4 hours to cause double-strand breaks, in cells also given a low, harmless dose of dsRNA against nbs to sensitise the assay. Detection: 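Mitotic index as the number of phospho-histone H3-positive cells in each well following doxorubicin, given as raw counts without normalisation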. Direction: mitotic cells: higher = more cells in mitosis, weaker G2 arrest. Hit rule: 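a call needs confirmation in secondary tests, with other dsRNAs and a check of mitotic timing without damage, not just a high primary count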. Calls: active = confirmed in follow-up tests; inactive = not confirmed.
The screen tested about 23,000 reagents; below is a random part of those with a known target gene and a result. Of all reagents, 62 (0.27%) were called active. 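Calls come from follow-up tests whose scores are not deposited, so confirmed genes may have low counts here; counts are not normalised per plate.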 The raw values are shown without normalisation.

Depletion of Isha [DRSC04456] gave: mitotic cells, replicate 1 = 3; inactive. For CG17754 [DRSC18131], the entry reads mitotic cells, replicate 1 = 8; inactive. With knock-down of CG5863 [DRSC15898], the record shows mitotic cells, replicate 1 = 8; inactive. Against CG15120 [DRSC06542], the values are mitotic cells, replicate 1 = 9; inactive. After knock-down of Ref2 [DRSC02563], the record shows mitotic cells, replicate 1 = 4; inactive. With knock-down of CG15571 [DRSC18059] the results were mitotic cells, replicate 1 = 13; inactive.

Silencing of CG15571 [DRSC30098] gave: mitotic cells, replicate 1 = 12; inactive. Against Gpo2 [DRSC06822], the values are mitotic cells, replicate 1 = 6; inactive. For TwdlO [DRSC16043], the values are mitotic cells, replicate 1 = 7; inactive. With knock-down of CG17065 [DRSC20544], the screen gave mitotic cells, replicate 1 = 10; inactive. CG17065 [DRSC26822] scored mitotic cells, replicate 1 = 8; inactive. Depletion of rad (retired record) [DRSC19687] came out at: mitotic cells, replicate 1 = 15; inactive.

rad (retired record) [DRSC22865] scored mitotic cells, replicate 1 = 8; inactive. CG14219 [DRSC19576] scored mitotic cells, replicate 1 = 17; inactive. CG14219 [DRSC26450] scored mitotic cells, replicate 1 = 11; inactive. For CG7203 [DRSC03026] the deposit lists mitotic cells, replicate 1 = 1; inactive. Silencing of CG7203 [DRSC25657] came out at: mitotic cells, replicate 1 = 3; inactive. After knock-down of inaD [DRSC04694] the results were mitotic cells, replicate 1 = 4; inactive.

Silencing of inaD [DRSC27116] gave: mitotic cells, replicate 1 = 8; inactive. Silencing of betaGlu [DRSC15419] resulted in: mitotic cells, replicate 1 = 5; inactive. Silencing of betaGlu [DRSC24889] gave: mitotic cells, replicate 1 = 5; inactive. With knock-down of CG17199 [DRSC15192], the screen gave mitotic cells, replicate 1 = 6; inactive. D1 [DRSC16638] scored mitotic cells, replicate 1 = 7; inactive. After knock-down of CG14223 [DRSC19580] the results were mitotic cells, replicate 1 = 8; inactive.

With knock-down of CG14223 [DRSC24816], the record shows mitotic cells, replicate 1 = 5; inactive. For CG4942 [DRSC10462] the deposit lists mitotic cells, replicate 1 = 6; inactive. Against Gpdh2 [DRSC04346], the entry reads mitotic cells, replicate 1 = 10; inactive. CG8958 [DRSC20134] gave mitotic cells, replicate 1 = 10; inactive. With knock-down of CG8958 [DRSC29479], the record shows mitotic cells, replicate 1 = 4; inactive. With knock-down of alc [DRSC07062] the results were mitotic cells, replicate 1 = 5; inactive.

For alc [DRSC21464], the entry reads mitotic cells, replicate 1 = 7; inactive. alc [DRSC23316] gave mitotic cells, replicate 1 = 10; inactive. For Psc [DRSC07518] the deposit lists mitotic cells, replicate 1 = 5; inactive. Against Psc [DRSC29016], the entry reads mitotic cells, replicate 1 = 10; inactive. Against Treh [DRSC04548], the entry reads mitotic cells, replicate 1 = 2; inactive. Knock-down of Treh [DRSC28721] gave: mitotic cells, replicate 1 = 6; inactive.

For Jhbp15 [DRSC15217], the entry reads mitotic cells, replicate 1 = 7; inactive. With knock-down of BomBc2 [DRSC06502], the record shows mitotic cells, replicate 1 = 2; inactive. Silencing of BomBc2 [DRSC29859] came out at: mitotic cells, replicate 1 = 12; inactive. For CG14877 [DRSC15001] the deposit lists mitotic cells, replicate 1 = 2; inactive. After knock-down of CG14877 [DRSC30033], the record shows mitotic cells, replicate 1 = 3; inactive. After knock-down of CG4073 [DRSC15542], the screen gave mitotic cells, replicate 1 = 3; inactive.

nAChRalpha6 [DRSC01096] showed mitotic cells, replicate 1 = 3; inactive. After knock-down of nAChRalpha6 [DRSC02738] the results were mitotic cells, replicate 1 = 8; inactive.

A run of entries taken from the entries so far, for reference:
CG14219 [DRSC26450] → mitotic cells, replicate 1 = 11; Call = inactive
CG7203 [DRSC03026] → mitotic cells, replicate 1 = 1; Call = inactive
